The assay has as its target hTACI(32-114)-Ig (human). Description: ELISA, hTACI(32-114)-Ig coated at 5 ug/ml, APRIL added at 0.0048 to 3 µg/ml (Figure 14 legend).

Chains of the proteins cited; added tags and fusions are not shown. Residues count along the entry.
UniProt Q9D777, residues 96-241: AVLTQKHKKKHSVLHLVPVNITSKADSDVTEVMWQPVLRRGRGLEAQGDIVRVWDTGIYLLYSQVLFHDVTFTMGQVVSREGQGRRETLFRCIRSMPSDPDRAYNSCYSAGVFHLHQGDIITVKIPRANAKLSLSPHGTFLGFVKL

These are yes or no findings as the source states them, for the method shown. Some results given as binding are weak or reduced against the parent protein; the word gives no strength.

Take “murine APRIL (protein preparation of Example 9, tag not stated) (from UniProt Q9D777 96-241) (ligand)”: the binding result is on record as “binds”.

These data come from patent EP1746106A2.
